In PubChem BioAssay AID248 (DTP/NCI, 2004):
The list is a part of this screen's results and no random one: it is rich in T/C values a quarter to a half above the control, in often repeated tests (any T/C) and in doses without a T/C. Further doses and runs are listed elsewhere. T/C: endpoint of the treated group in % of that of the vehicle group. Some doses have a count of surviving animals in place of a T/C: the source holds a T/C of zero for them, seemingly a mark for toxic or unscored doses. Some doses without a T/C left all or most animals alive at the check, yet need not have been tolerated: the source hardly ever lists a survival T/C far under the control, and the zero likely stands for such cases as well. Counts of survivors are from the toxicity check (mostly the fifth day) where no day follows; animals may have died later. Schedule codes are those of the source, taken here to give the interval after Q, in days (D) or hours (H), and the number of doses after X. Some entries were tested several times; the values are given in rising order. Some schedules carry Z or #; the key to these is not given. Counts like (3×) stand for listed records that agree. Where survival is the endpoint, the PubChem record calls one and a half times the control and up active, and a quarter to a half above the control has no call in these data; cut-offs in other NCI protocols can differ. Some T/C values carry the count of animals alive at the toxicity check (mostly the fifth day); without a count, all were alive then.

Test system: L1210 leukemia ip in BDF1 mice, survival T/C
Test: NCI In Vivo Anticancer Drug Screen. Data for tumor model L1210 Leukemia (intraperitoneal) in B6D2F1 (BDF1) mice
Details: T/C endpoint: mean survival time, higher T/C = longer survival
[1] = dose: 200.0 mg/kg/injection, schedule: Q01DX005 (ip), vehicle: water
[2] = dose: 400.0 mg/kg/injection, schedule: Q01DX005 (ip), vehicle: water
[3] = dose: 100.0 mg/kg/injection, schedule: Q01DX009 (ip), vehicle: saline with Tween-80
[4] = dose: 200.0 mg/kg/injection, schedule: Q01DX009 (ip), vehicle: saline with Tween-80
[5] = dose: 400.0 mg/kg/injection, schedule: Q01DX009 (ip), vehicle: saline with Tween-80
[6] = dose: 400.0 mg/kg/injection, schedule: Q04DX003 (ip), vehicle: Klucel (hydroxypropylcellulose) (HPC)
[7] = dose: 400.0 mg/kg/injection, schedule: Q04DX002 (ip), vehicle: Klucel (hydroxypropylcellulose) (HPC)
[8] = dose: 400.0 mg/kg/injection, schedule: Q04DX003 (ip), vehicle: saline with Tween-80
[9] = dose: 400.0 mg/kg/injection, schedule: Q04DX003 (ip), vehicle: saline
[10] = dose: 200.0 mg/kg/injection, schedule: Q04DX003 (ip), vehicle: saline
[11] = dose: 100.0 mg/kg/injection, schedule: Q01DX009 (ip), vehicle: saline

NNC(=O)c1cccc([N+](=O)[O-])c1 was tested, and the survivor count (dose: 50.0 mg/kg/injection, schedule: Q04DX003 (ip), vehicle: Klucel (hydroxypropylcellulose) (HPC)) was 0 of 6, the survivor count (dose: 100.0 mg/kg/injection, schedule: Q04DX003 (ip), vehicle: carboxymethylcellulose (CMC)) was 1 of 6 and the survivor count (dose: 200.0 mg/kg/injection, schedule: Q04DX003 (ip), vehicle: carboxymethylcellulose (CMC)) was 0 of 6. The survivor count (dose: 400.0 mg/kg/injection, schedule: Q04DX003 (ip), vehicle: carboxymethylcellulose (CMC)) was 0 of 6.
For CC(C)(O)CCNc1ncnc2c1ncn2C1OC(CO)C(O)C1O (configuration not stated), the T/C [1] was 128 % of control, the survivor count [1] was 2 of 6 and the T/C [2] was 138 % of control. The survivor count [2] was 3 of 6.
O=C(O)c1ccccc1CN1CCCC(C(=O)O)C1 (configuration not stated) was tested, and the survivor count [3] was 3 of 6, the survivor count [4] was 0 of 6 and the survivor count [5] was 0 of 6.
With Cc1ccc(NC(=O)CI)cc1 the survivor count (dose: 25.0 mg/kg/injection, schedule: Q04DX002 (ip), vehicle: other) was 3 of 3 and the survivor count (dose: 100.0 mg/kg/injection, schedule: Q04DX002 (ip), vehicle: other) was 0 of 3.
With COc1nc(N)c(C#N)c(C#N)c1C#N the survivor count (dose: 60.0 mg/kg/injection, schedule: Q01DX001 (ip), vehicle: carboxymethylcellulose (CMC)) was 1 of 6, the survivor count (dose: 75.0 mg/kg/injection, schedule: Q01DX001 (ip), vehicle: carboxymethylcellulose (CMC)) was 1 of 6 and the survivor count (dose: 150.0 mg/kg/injection, schedule: Q01DX001 (ip), vehicle: carboxymethylcellulose (CMC)) was 1 of 6. For the same molecule, the survivor count (dose: 300.0 mg/kg/injection, schedule: Q01DX001 (ip), vehicle: carboxymethylcellulose (CMC)) was 0 of 6.
With CC(C)C1(C)C(=O)N(C)C(=O)N1Br (configuration not stated) the survivor count (dose: 200.0 mg/kg/injection, schedule: Q01DX009 (ip), vehicle: Klucel (hydroxypropylcellulose) (HPC)) was 1 of 6 and the survivor count [6] was 2 of 6.
In the case of O=C(Nc1ccc(NC(=O)c2ccc(C3=NCCCN3)cc2)cc1)Nc1ccc(C2=NCCCN2)cc1, the T/C (dose: 3.0 mg/kg/injection, schedule: Q01DX Z (ip), vehicle: carboxymethylcellulose (CMC)) is reported as 136 % of control, the T/C (dose: 5.7 mg/kg/injection, schedule: Q01DX Z (ip), vehicle: carboxymethylcellulose (CMC)) is reported as 129 % of control and the T/C (dose: 10.0 mg/kg/injection, schedule: Q01DX Z (ip), vehicle: carboxymethylcellulose (CMC)) is reported as 144 % of control. The T/C (dose: 10.5 mg/kg/injection, schedule: Q01DX Z (ip), vehicle: carboxymethylcellulose (CMC)) was 137 % of control and the survivor count (dose: 42.0 mg/kg/injection, schedule: Q01DX Z (ip), vehicle: carboxymethylcellulose (CMC)) was 6 of 6.
With Cc1ccc(S(=O)(=O)OCCN(CCOS(=O)(=O)c2ccc(C)cc2)c2ccc(C=O)cc2)cc1 the T/C (dose: 175.0 mg/kg/injection, schedule: Q01DX001 (ip), vehicle: carboxymethylcellulose (CMC)) was 132 % of control, the T/C (dose: 265.0 mg/kg/injection, schedule: Q01DX001 (ip), vehicle: carboxymethylcellulose (CMC)) was 140 % of control and the T/C (dose: 400.0 mg/kg/injection, schedule: Q01DX001 (ip), vehicle: carboxymethylcellulose (CMC)) was 118, 120, 124, 133 % of control. For the same molecule, the T/C (dose: 600.0 mg/kg/injection, schedule: Q01DX001 (ip), vehicle: carboxymethylcellulose (CMC)) was 139 % of control [5 of 6 alive].
For CN/C([S-])=N/N=C/C(=N/N=C(\[S-])NC)c1ccccc1.[Zn+2], the survivor count (dose: 25.0 mg/kg/injection, schedule: Q04DX002 (ip), vehicle: Klucel (hydroxypropylcellulose) (HPC)) was 0 of 3 and 1 of 3, the survivor count (dose: 50.0 mg/kg/injection, schedule: Q04DX002 (ip), vehicle: Klucel (hydroxypropylcellulose) (HPC)) was 0 of 3 and the survivor count (dose: 100.0 mg/kg/injection, schedule: Q04DX002 (ip), vehicle: Klucel (hydroxypropylcellulose) (HPC)) was 0 of 3 (2×). The survivor count (dose: 200.0 mg/kg/injection, schedule: Q04DX002 (ip), vehicle: Klucel (hydroxypropylcellulose) (HPC)) was 0 of 3 and the survivor count [7] was 0 of 3.
CCCCOC(=O)c1ccc(OC(=O)Nc2ccc(Cl)cc2)cc1 was tested, and the T/C [3] was 92, 94, 99, 100 % of control, the T/C [4] was 92, 93, 105 % of control [2 of 3 alive] and the survivor count [4] was 2 of 6. The survivor count [5] was 3 of 6 and 2 of 3.
For CSCC(C)(C)NC(=O)NCCCl, the survivor count [7] was 3 of 3.
CN(CCC(=O)c1ccccc1)CCC(=O)c1ccccc1 was tested, and the survivor count (dose: 400.0 mg/kg/injection, schedule: Q01DX001 (ip), vehicle: saline with Tween-80) was 0 of 6.
In the case of Cc1ccc(S(=O)(=O)Oc2ccc([N+](=O)[O-])cc2[N+](=O)[O-])cc1, the survivor count (dose: 200.0 mg/kg/injection, schedule: Q01DX009 (ip), vehicle: other) is reported as 4 of 6 and the survivor count [6] is reported as 4 of 6.
For CCN=C(c1ccc(NC(=O)c2ccc(C(=O)Nc3ccc(C(=NCC)N(CC)C(C)=O)cc3)cc2)cc1)N(CC)C(C)=O, the survivor count (dose: 250.0 mg/kg/injection, schedule: Q01DX015 (ip), vehicle: methylcellulose (MC)) was 3 of 6.
Cc1cc(C(C)(C)C)c(SC(=O)N(C)C)c(C(C)(C)C)c1 was tested, and the survivor count [8] was 5 of 6.
In the case of O=C1CN=C(c2ccccc2)c2cc(Cl)ccc2N1, the survivor count (dose: 400.0 mg/kg/injection, schedule: Q01DX009 (ip), vehicle: Klucel (hydroxypropylcellulose) (HPC)) is reported as 3 of 6.
O=C(Nc1ccccc1)OC1CCC2CC21 (configuration not stated) was tested, and the survivor count [4] was 3 of 3.
With Cn1cnc2c(C(F)(F)F)nc(N)nc21 the survivor count [9] was 5 of 6.
For COC(=O)c1cncn1C(C)c1ccccc1 (configuration not stated), the survivor count (dose: 200.0 mg/kg/injection, schedule: Q01DX009 (ip), vehicle: saline) was 0 of 6, the survivor count [10] was 3 of 6 and the survivor count [9] was 0 of 6.
In the case of NNCCc1ccccc1, the survivor count [11] is reported as 0 of 6, the survivor count [10] is reported as 2 of 4 and the survivor count [9] is reported as 0 of 4.
For COc1ccc2nc3cc(Cl)ccc3c(NCCCSCCCl)c2n1, the T/C (dose: 4.0 mg/kg/injection, schedule: Q01DX009 (ip), vehicle: saline) was 125 % of control, the survivor count (dose: 16.0 mg/kg/injection, schedule: Q01DX009 (ip), vehicle: saline) was 3 of 6 and the survivor count (dose: 25.0 mg/kg/injection, schedule: Q01DX009 (ip), vehicle: saline) was 1 of 6. For the same molecule, the survivor count (dose: 50.0 mg/kg/injection, schedule: Q01DX009 (ip), vehicle: saline) was 2 of 6, the survivor count (dose: 75.0 mg/kg/injection, schedule: Q01DX009 (ip), vehicle: saline) was 3 of 6 and the survivor count [11] was 0 of 6.
Cc1ccccc1/C=N/NC(=O)c1cccc2ccccc12 was tested, and the survivor count (dose: 400.0 mg/kg/injection, schedule: Q01DX001 (ip), vehicle: saline) was 4 of 4.
For c1cnc2sccc2c1, the survivor count [4] was 3 of 6 and the survivor count [8] was 0 of 6.
For CC1C(C(=O)c2ccc(-c3ccccc3)cc2)N1c1ccccc1 (configuration not stated), the survivor count (dose: 200.0 mg/kg/injection, schedule: Q01DX001 (ip), vehicle: Klucel (hydroxypropylcellulose) (HPC)) was 3 of 3.
